Results are given in words; binding and its absence hold for the method and conditions named. In cells and extracts the contact can be indirect. Here binding means that the protein was enriched with, or labelled near, the bait; the list need not be complete.
T1: PHF6 (human (endogenous in THP-1)) (UniProt Q8IWS0)
T1 sequence: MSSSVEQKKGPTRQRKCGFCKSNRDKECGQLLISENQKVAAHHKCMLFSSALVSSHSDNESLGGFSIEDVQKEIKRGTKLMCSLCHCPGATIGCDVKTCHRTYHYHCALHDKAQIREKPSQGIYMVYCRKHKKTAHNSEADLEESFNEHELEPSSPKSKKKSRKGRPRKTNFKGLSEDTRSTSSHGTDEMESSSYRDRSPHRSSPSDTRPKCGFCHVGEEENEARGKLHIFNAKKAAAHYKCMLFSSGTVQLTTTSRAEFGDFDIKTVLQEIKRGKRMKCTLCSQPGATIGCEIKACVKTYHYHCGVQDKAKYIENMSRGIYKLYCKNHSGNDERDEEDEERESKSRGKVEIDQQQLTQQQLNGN

The chains behind the UniProt entries cited, without tags or fusion partners.
UniProt Q13951: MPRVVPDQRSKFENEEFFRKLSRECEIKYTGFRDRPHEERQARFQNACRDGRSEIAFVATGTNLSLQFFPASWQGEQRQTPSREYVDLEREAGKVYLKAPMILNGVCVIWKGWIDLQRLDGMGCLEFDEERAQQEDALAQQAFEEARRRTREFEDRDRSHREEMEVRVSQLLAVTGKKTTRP
UniProt P17844: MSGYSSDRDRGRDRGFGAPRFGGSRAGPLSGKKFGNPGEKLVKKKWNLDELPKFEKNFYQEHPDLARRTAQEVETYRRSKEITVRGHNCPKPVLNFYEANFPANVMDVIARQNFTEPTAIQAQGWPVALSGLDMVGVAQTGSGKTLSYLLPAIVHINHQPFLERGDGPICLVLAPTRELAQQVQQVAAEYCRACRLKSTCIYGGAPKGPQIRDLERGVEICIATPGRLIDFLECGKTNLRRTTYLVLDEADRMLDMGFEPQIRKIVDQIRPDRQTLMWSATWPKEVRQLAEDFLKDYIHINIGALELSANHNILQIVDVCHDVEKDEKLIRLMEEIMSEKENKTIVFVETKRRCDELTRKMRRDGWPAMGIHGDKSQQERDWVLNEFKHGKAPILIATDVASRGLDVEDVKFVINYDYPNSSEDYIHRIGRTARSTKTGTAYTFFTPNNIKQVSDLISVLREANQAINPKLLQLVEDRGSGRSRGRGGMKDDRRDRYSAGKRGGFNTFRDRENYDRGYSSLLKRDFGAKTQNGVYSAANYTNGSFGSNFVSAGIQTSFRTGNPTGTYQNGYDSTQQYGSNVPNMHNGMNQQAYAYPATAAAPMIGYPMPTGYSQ
UniProt P54132: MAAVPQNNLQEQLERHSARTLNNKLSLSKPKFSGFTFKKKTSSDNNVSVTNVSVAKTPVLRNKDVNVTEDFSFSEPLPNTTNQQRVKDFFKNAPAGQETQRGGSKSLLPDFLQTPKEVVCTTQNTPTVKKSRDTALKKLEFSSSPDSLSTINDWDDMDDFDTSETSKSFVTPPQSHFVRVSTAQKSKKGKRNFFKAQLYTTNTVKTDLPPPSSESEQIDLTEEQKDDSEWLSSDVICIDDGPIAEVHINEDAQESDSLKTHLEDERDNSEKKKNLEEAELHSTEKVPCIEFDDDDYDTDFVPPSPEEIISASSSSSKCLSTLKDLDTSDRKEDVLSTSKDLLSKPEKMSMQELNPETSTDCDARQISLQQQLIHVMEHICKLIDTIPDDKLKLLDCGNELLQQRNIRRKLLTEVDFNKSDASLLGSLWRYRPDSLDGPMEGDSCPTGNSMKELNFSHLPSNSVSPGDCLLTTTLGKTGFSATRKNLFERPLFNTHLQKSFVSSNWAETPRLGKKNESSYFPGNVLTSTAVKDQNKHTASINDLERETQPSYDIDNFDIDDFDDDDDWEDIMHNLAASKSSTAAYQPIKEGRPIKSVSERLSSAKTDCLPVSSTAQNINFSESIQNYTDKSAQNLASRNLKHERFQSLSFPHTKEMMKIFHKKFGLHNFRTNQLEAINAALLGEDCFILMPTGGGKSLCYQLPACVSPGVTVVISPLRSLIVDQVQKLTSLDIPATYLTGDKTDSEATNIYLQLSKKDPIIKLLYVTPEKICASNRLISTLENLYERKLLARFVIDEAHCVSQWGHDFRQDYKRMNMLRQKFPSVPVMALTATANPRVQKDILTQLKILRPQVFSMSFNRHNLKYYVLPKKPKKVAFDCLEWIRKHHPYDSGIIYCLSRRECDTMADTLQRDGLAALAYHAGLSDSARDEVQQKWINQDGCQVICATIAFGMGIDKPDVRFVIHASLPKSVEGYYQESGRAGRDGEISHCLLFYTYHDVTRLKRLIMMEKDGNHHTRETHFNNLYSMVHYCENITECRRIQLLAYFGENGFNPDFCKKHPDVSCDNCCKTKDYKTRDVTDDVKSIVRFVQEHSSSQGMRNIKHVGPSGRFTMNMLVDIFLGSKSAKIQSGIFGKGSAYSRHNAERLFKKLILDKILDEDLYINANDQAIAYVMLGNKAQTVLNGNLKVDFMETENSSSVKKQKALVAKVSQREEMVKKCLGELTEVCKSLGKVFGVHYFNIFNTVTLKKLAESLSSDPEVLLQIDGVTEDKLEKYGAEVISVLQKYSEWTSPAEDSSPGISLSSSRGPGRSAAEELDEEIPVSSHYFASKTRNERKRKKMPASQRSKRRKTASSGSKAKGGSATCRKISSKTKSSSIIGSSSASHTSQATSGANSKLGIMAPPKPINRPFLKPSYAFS
UniProt Q01196: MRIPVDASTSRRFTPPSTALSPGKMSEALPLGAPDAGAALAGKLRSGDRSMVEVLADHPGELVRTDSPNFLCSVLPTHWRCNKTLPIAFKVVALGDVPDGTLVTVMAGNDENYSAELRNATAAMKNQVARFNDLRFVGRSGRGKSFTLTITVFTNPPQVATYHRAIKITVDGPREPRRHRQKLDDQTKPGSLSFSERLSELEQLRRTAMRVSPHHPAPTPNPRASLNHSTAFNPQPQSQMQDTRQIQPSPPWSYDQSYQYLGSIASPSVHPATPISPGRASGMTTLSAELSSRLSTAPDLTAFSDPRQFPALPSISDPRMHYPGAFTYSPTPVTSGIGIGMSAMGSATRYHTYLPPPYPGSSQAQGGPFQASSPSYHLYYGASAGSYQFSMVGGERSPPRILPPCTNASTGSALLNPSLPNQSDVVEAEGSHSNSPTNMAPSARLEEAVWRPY


What follows are molecules tested against T1, PHF6 (human (endogenous in THP-1)) (assay: affinity purification with mass spectrometry; agarose-conjugated anti-PHF6 antibody against isotype IgG; THP-1 nuclear protein extracts (Benzonase-treated), 4 °C overnight, five washes of 1x PBS with 1% NP-40; gel slices, trypsin, LC-MS/MS).

binding | Molecule
binds | CBFB (from UniProt Q13951 1-182)
binds | DDX5 (from UniProt P17844 1-614)
binds | BLM (from UniProt P54132 1-1417)
binds | RUNX1 (from UniProt Q01196 1-453)
binds | SRRT (protein, UniProt Q9BXP5 1-876) MGDSDDEYDRRRRDKFRRERSDYDRSRERDERRRGDDWNDREWDRGRERRSRGEYRDYDRNRRERFSPPRHELSPPQKRMRRDWDEHSSDPYHSGYEMPYAGGGGGPTYGPPQPWGHPDVHIMQHHVLPIQARLGSIAEIDLGVPPPVMKTFKEFLLSLDDSVDETEAVKRYNDYKLDFRRQQMQDFFLAHKDEEWFRSKYHPDEVGKRRQEARGALQNRLRVFLSLMETGWFDNLLLDIDKADAIVKMLDAAVIKMEGGTENDLRILEQEEEEEQAGKPGEPSKKEEGRAGAGLGDGERKTNDKDEKKEDGKQAENDSSNDDKTKKSEGDGDKEEKKEDSEKEAKKSSKKRNRKHSGDDSFDEGSVSESESESESGQAEEEKEEAEEALKEKEKPKEEEWEKPKDAAGLECKPRPLHKTCSLFMRNIAPNISRAEIISLCKRYPGFMRVALSEPQPERRFFRRGWVTFDRSVNIKEICWNLQNIRLRECELSPGVNRDLTRRVRNINGITQHKQIVRNDIKLAAKLIHTLDDRTQLWASEPGTPPLPTSLPSQNPILKNITDYLIEEVSAEEEELLGSSGGAPPEEPPKEGNPAEINVERDEKLIKVLDKLLLYLRIVHSLDYYNTCEYPNEDEMPNRCGIIHVRGPMPPNRISHGEVLEWQKTFEEKLTPLLSVRESLSEEEAQKMGRKDPEQEVEKFVTSNTQELGKDKWLCPLSGKKFKGPEFVRKHIFNKHAEKIEEVKKEVAFFNNFLTDAKRPALPEIKPAQPPGPAQILPPGLTPGLPYPHQTPQGLMPYGQPRPPILGYGAGAVRPAVPTGGPPYPHAPYGAGRGNYDAFRGQGGYPGKPRNRMVRGDPRAIVEYRDLDAPDDVDFF

Reference: paper PMC10901781
